Measured data: PubChem BioAssay AID652243 (Drosophila RNAi Screening Center, 2013)
The deposit covers about 24,000 reagents; shown is a random part of those with a known target gene and a result. In the full data, 246 (1%) got an active call. 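Plates not normalised; calls are printed but the firefly/Renilla ratio behind them is not deposited; fold cut for lowering reported inconsistently.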 Raw values vary from plate to plate and are shown uncorrected. The numbers tell different reagents against one gene apart. Not stated in the record: the amount of reagent.

- Aim: 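Fly genes required for human androgen receptor driven transcription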 (primary screen)
- System: Drosophila S2R+ cells
- Knock-down reagent: long dsRNA against Drosophila genes
- Duration: 72 h (48 h, then 24 h hormone)
- Treatment: synthetic androgen R1881 at 10 nM for 24 h
- Read-out: 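Per-well raw luminescence of the androgen-driven firefly reporter and of the Renilla control, two replicates each, without normalisation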
- Direction: firefly reporter light: higher = more light from androgen-responsive reporter; Renilla control light: higher = more constitutive control signal (cell number, transfection)
- Hit rule: 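Across duplicate plates, a knock-down whose log firefly/Renilla ratio shifted a set fold down or up from the GFP/LacZ control mean was a hit; the downward cut appears as both 1.5 and 3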
- Meaning of the calls: active = hit: reporter lowered or raised; inactive = no hit

target gene | dsRNA no. | firefly reporter light, replicate 1 | firefly reporter light, replicate 2 | Renilla control light, replicate 1 | Renilla control light, replicate 2 | call
Teh1 | 1 | 71548 | 1.26e5 | 1.30e6 | 1.92e6 | inactive
CG13282 | 1 | 76367 | 1.04e5 | 1.36e6 | 1.32e6 | inactive
CG12426 | 1 | 2.32e5 | 1.69e5 | 2.44e6 | 2.71e6 | inactive
CR31054 | 1 | 5.52e5 | 5.46e5 | 2.50e6 | 2.36e6 | inactive
CPT2 | 1 | 7.44e5 | 8.19e5 | 6.67e5 | 7.85e5 | inactive
CG15643 | 1 | 3.91e5 | 3.73e5 | 2.90e6 | 3.29e6 | inactive
CG15643 | 2 | 3.78e5 | 2.50e5 | 9.73e5 | 5.45e5 | inactive
Mapmodulin | 1 | 1.05e6 | 8.08e5 | 2.05e6 | 1.48e6 | inactive
Mapmodulin | 2 | – | – | – | – | inactive
Cpr64Ac | 1 | 2.24e5 | 1.48e5 | 2.31e6 | 1.14e6 | inactive
Cpr64Ac | 2 | 6.29e5 | 5.22e5 | 1.67e6 | 1.28e6 | inactive
Pcf11 | 1 | 3.01e5 | 2.50e5 | 2.56e5 | 3.13e5 | inactive

Look-ups from the list:
For “call”, CG12426 shows inactive
For “firefly reporter light, replicate 2”, Mapmodulin #1 reads 8.08e5
Result for CG15643 #2 under “firefly reporter light, replicate 2”: 2.50e5
Result for Mapmodulin #2 under “call”: inactive

Continued:
target gene | dsRNA no. | firefly reporter light, replicate 1 | firefly reporter light, replicate 2 | Renilla control light, replicate 1 | Renilla control light, replicate 2 | call
fiz | 1 | 96451 | 97803 | 7.12e5 | 7.20e5 | inactive
apt | 1 | 1.26e6 | 1.16e6 | 7.98e5 | 7.58e5 | inactive
apt | 2 | 4.21e5 | 5.07e5 | 6.52e5 | 6.68e5 | inactive
Mtpbeta | 1 | 4.72e5 | 1.06e6 | 9.56e5 | 1.59e6 | inactive
brv2 | 1 | 2.41e5 | 1.43e5 | 2.02e6 | 1.38e6 | inactive
brv2 | 2 | 6.53e5 | 4.79e5 | 1.49e6 | 1.50e6 | inactive
CG32022 | 1 | 1.97e5 | 1.22e5 | 2.02e6 | 1.31e6 | inactive
CG13527 | 1 | 4.53e5 | 4.97e5 | 1.73e6 | 1.96e6 | inactive
CG11357 | 1 | 1.05e5 | 97089 | 1.35e6 | 1.39e6 | inactive
CG10910 | 1 | 1.22e5 | 91338 | 2.03e6 | 2.03e6 | inactive
CG10910 | 2 | 4.99e5 | 4.74e5 | 1.55e6 | 1.40e6 | inactive
nord | 1 | 2.49e5 | 2.71e5 | 1.63e6 | 1.77e6 | inactive
nord | 2 | 2.50e5 | 3.02e5 | 1.37e6 | 1.33e6 | inactive
